Laboratory results from US10221179B2, “Substituted pyrazoloquinazolinones and pyrroloquinazolinones as allosteric modulators of group II metabotropic glutamate receptors” (DOMAIN THERAPEUTICS, priority 2014, dated 2019).
Some entries share one result that the patent states for a list of compounds. At least one structure is not confirmed: it was looked up by name or label, or the drawing left a doubt.

The chains behind the UniProt entries cited, without tags or fusion partners. Residues count along the entry.
UniProt Q14416, 19-872: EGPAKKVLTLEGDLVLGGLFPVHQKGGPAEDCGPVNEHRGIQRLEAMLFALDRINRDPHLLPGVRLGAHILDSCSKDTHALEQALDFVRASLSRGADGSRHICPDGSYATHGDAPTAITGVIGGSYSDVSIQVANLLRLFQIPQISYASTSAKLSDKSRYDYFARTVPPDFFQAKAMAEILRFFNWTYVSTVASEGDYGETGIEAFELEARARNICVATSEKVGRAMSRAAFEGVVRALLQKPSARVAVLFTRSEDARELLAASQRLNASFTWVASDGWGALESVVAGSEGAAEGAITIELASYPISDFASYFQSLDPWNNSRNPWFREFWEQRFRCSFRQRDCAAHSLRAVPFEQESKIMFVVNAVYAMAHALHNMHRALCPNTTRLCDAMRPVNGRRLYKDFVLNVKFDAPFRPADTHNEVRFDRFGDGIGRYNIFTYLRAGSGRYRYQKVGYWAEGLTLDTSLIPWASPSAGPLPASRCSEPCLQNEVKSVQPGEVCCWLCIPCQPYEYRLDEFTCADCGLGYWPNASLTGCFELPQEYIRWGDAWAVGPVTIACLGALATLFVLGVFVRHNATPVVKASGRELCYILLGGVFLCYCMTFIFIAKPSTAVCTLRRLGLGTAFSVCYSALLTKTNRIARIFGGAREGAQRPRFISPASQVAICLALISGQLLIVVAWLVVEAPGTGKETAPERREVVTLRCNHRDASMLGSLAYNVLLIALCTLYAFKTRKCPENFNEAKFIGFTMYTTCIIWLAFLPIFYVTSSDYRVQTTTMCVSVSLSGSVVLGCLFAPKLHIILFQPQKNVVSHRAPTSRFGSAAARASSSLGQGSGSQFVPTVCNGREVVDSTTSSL

Molecular target: T1, human mGluR2 (hmGluR2) (Homo sapiens, UniProt Q14416)
T1 construct: expressed in transfected cells; host or cells: HEK-293 cells, transient co-transfection by electroporation
Assay: Ca++ functional assay, human mGluR2 transiently over-expressed in HEK-293 cells (agonist and negative allosteric modulator modes)
Assay type: cell-based
Conditions: selectivity for mGluR2 over mGluR3; IC50 values from the Ca++ functional assay of Example 127
Protocol: Example 127: Human mGluR2 and mGluR3 Evaluation Using Ca^++ Functional Assay
Examples of the present invention were tested successively for their agonist and negative allosteric modulator activities on human mGluR2 (hmGluR2) and mGluR3 (hmGluR3) transiently over-expressed in HEK-293 cells.
Cell Culture and Transfection
HEK-293 cells are maintained in Modified Eagle's Medium supplemented with 10% Foetal Calf Serum, 1% Penicillin/Streptomycin and 1% non-essential amino acids at 37° C./5% CO2.
Cells are co-transfected by electroporation with four DNA plasmids encoding hmGluR2 or hmGluR3, a chimeric G protein allowing redirection of the activation signal to intracellular calcium pathway (Brabet I et al., Neuropharmacology 37(8), 1043-51, 1998), and two glutamate transporters minimizing receptor desensitization by endogenous glutamate. After transfection, cells are cultured for 24 h at 37° C./5% CO2.
Calcium Assay IC50 Determination
Receptor activity is detected by changes in intracellular calcium measured using the fluorescent Ca^2+ sensitive dye, Fluo4AM (Molecular Probes).
On the day of the assay, culture medium is aspirated and replaced during 3 hours by medium without serum supplemented with 1% Glutamax, 1% Penicillin/Streptomycin and 1% non-essential amino acids. Then, cells are washed with freshly prepared buffer B (HBSS 1×(PAA), Hepes 20 mM, MgSO4-7H2O 1 mM, Na2CO3 3.3 mM, CaCl2-2H2O 1.3 mM, 0.1% BSA, Probenecid 2.5 mM) and loaded at 37° C. in 5% CO2 for 1.5 hours with buffer B containing 1 μM Fluo4AM, 0.1 mg/mL Pluronic Acid, 7 μg/mL Glutamate Pyruvate Transaminase and 2 mM sodium pyruvate. Afterwards cells are washed twice with buffer B. Then cells are detached using StemPro Accutase (Fischer Scientific), resuspended in buffer B and seeded in 384 well plate at a density of 30,000 cells per well. Addition of compounds and intracellular Ca^2+ measurements (excitation 485 nm, emission 525 nm) are performed by the fluorescence microplate reader FLIPRTetra (Molecular Devices).
Agonist and negative allosteric modulator activities of compounds are consecutively evaluated on the same cell plate. […] Then, cells are stimulated by an EC80 glutamate concentration and fluorescence is recorded for additional 3 minutes. EC80 glutamate concentration is the concentration giving 80% of the maximal glutamate response. Agonist or negative allosteric modulator activity(ies) are evaluated in comparison to basal signals evoked by buffer B or EC80 glutamate alone, respectively.
For IC50 determination, a dose-response test is performed using 20 concentrations (ranging over 6 logs) of each compound. Dose-response curves are fitted using the sigmoidal dose-response (variable slope) analysis in GraphPad Prism program (Graph Pad Inc) and IC50 of negative allosteric modulator activity is calculated. Dose-response experiments are performed in duplicate, two times independently.

`[2H]C([2H])([2H])Nc1ccc2c(c1)c(=O)n(C)c1cc(-c3ccnc(C(F)(F)F)c3)nn21` [Example 41, 4-Methyl-7-methyl(D3)amino-2-(2-trifluoromethyl-pyridin-4-yl)-4H-pyrazolo[1,5-a]quinazolin-5-one] was tested. Which “ratio [IC50 hmGluR3]/[IC50 hmGluR2]” value did it give?
Its value is “higher than 3”.

With `CN(C)c1ccc2c(c1)c(=O)n(C)c1cc(-c3ccnc(C(F)(F)F)c3)nn21` [Example 44, 7-Dimethylamino-4-methyl-2-(2-trifluoromethyl-pyridin-4-yl)-4H-pyrazolo[1,5-a]quinazolin-5-one] as the compound, how does the “ratio [IC50 hmGluR3]/[IC50 hmGluR2]” value read?
The value was “higher than 3”.

How did the “ratio [IC50 hmGluR3]/[IC50 hmGluR2]” value turn out when `CCNc1ccc2c(c1)c(=O)n(C)c1cc(-c3ccnc(C(F)(F)F)c3)nn21` [Example 45, 7-Ethylamino-4-methyl-2-(2-trifluoromethyl-pyridin-4-yl)-4H-pyrazolo[1,5-a]quinazolin-5-one] was run?
Its value is “higher than 3”.

Which “ratio [IC50 hmGluR3]/[IC50 hmGluR2]” value does the source give for `Cn1c(=O)c2cc(O)ccc2n2nc(-c3ccnc(C(F)(F)F)c3)cc12` [Example 48, 7-Hydroxy-4-methyl-2-(2-trifluoromethyl-pyridin-4-yl)-4H-pyrazolo[1,5-a]quinazolin-5-one] here?
The value was “higher than 3”.

For `CCOc1ccc2c(c1)c(=O)n(C)c1cc(-c3ccnc(C(F)(F)F)c3)nn21` [Example 49, 7-Ethoxy-4-methyl-2-(2-trifluoromethyl-pyridin-4-yl)-4H-pyrazolo[1,5-a]quinazolin-5-one], which “ratio [IC50 hmGluR3]/[IC50 hmGluR2]” value is on record?
Its value is “higher than 3”.

`Cn1c(=O)c2ccc(F)cc2n2nc(-c3ccnc(C(F)(F)F)c3)cc12` [Example 55, 8-Fluoro-4-methyl-2-(2-trifluoromethyl-pyridin-4-yl)-4H-pyrazolo[1,5-a]quinazolin-5-one] was tested. Which “ratio [IC50 hmGluR3]/[IC50 hmGluR2]” value did it give?
The value was “higher than 3”.

For `Cn1c(=O)c2ccc(Cl)cc2n2nc(-c3ccnc(C(F)(F)F)c3)cc12` [Example 56, 8-Chloro-4-methyl-2-(2-trifluoromethyl-pyridin-4-yl)-4H-pyrazolo[1,5-a]quinazolin-5-one], which “ratio [IC50 hmGluR3]/[IC50 hmGluR2]” value is on record?
Its value is “higher than 3”.

How did the “ratio [IC50 hmGluR3]/[IC50 hmGluR2]” value turn out when `Cn1c(=O)c2ccc(Br)cc2n2nc(-c3ccnc(C(F)(F)F)c3)cc12` [Example 58, 8-Bromo-4-methyl-2-(2-trifluoromethyl-pyridin-4-yl)-4H-pyrazolo[1,5-a]quinazolin-5-one] was run?
The value was “higher than 3”.

Which “ratio [IC50 hmGluR3]/[IC50 hmGluR2]” value does the source give for `CNc1ccc2c(=O)n(C)c3cc(-c4ccnc(C(F)(F)F)c4)nn3c2c1` [Example 61, 4-Methyl-8-methylamino-2-(2-trifluoromethyl-pyridin-4-yl)-4H-pyrazolo[1,5-a]quinazolin-5-one] here?
Its value is “higher than 3”.

With `Cn1c(=O)c2ccc(N3CCC(O)CC3)cc2n2nc(-c3ccnc(C(F)(F)F)c3)cc12` [Example 63, 8-(4-Hydroxy-piperidin-1-yl)-4-methyl-2-(2-trifluoromethyl-pyridin-4-yl)-4H-pyrazolo[1,5-a]quinazolin-5-one] as the compound, how does the “ratio [IC50 hmGluR3]/[IC50 hmGluR2]” value read?
Its value is “higher than 3”.

How did the “ratio [IC50 hmGluR3]/[IC50 hmGluR2]” value turn out when `CN(C)c1ccc2c(=O)n(C)c3cc(-c4ccnc(C(F)(F)F)c4)nn3c2c1` [Example 64, 8-Dimethylamino-4-methyl-2-(2-trifluoromethyl-pyridin-4-yl)-4H-pyrazolo[1,5-a]quinazolin-5-one] was run?
Its value is “higher than 3”.

`Cn1c(=O)c2ccc(N3CC(O)C3)cc2n2nc(-c3ccnc(C(F)(F)F)c3)cc12` [Example 68, 8-(3-Hydroxy-azetidin-1-yl)-4-methyl-2-(2-trifluoromethyl-pyridin-4-yl)-4H-pyrazolo[1,5-a]quinazolin-5-one] was tested. Which “ratio [IC50 hmGluR3]/[IC50 hmGluR2]” value did it give?
The value was “higher than 3”.

With `Cn1c(=O)c2ccc(N3CCC(O)C3)cc2n2nc(-c3ccnc(C(F)(F)F)c3)cc12` (stereo not shown) [Example 70, 8-(3-Hydroxy-pyrrolidin-1-yl)-4-methyl-2-(2-trifluoromethyl-pyridin-4-yl)-4H-pyrazolo[1,5-a]quinazolin-5-one] as the compound, how does the “ratio [IC50 hmGluR3]/[IC50 hmGluR2]” value read?
The value was “higher than 3”.

With `Cn1c(=O)c2ccc(C(N)=O)cc2n2nc(-c3ccnc(C(F)(F)F)c3)cc12` [Example 77, 4-Methyl-5-oxo-2-(2-trifluoromethyl-pyridin-4-yl)-4,5-dihydro-pyrazolo[1,5-a]quinazoline-8-carboxylic Acid Amide] as the compound, how does the “ratio [IC50 hmGluR3]/[IC50 hmGluR2]” value read?
Its value is “higher than 3”.

`CNC(=O)c1ccc2c(=O)n(C)c3cc(-c4ccnc(C(F)(F)F)c4)nn3c2c1` [Example 78, 4-Methyl-5-oxo-2-(2-trifluoromethyl-pyridin-4-yl)-4,5-dihydro-pyrazolo[1,5-a]quinazoline-8-carboxylic Acid Methylamide] was tested. Which “ratio [IC50 hmGluR3]/[IC50 hmGluR2]” value did it give?
The value was “higher than 3”.

`CN(C)C(=O)c1ccc2c(=O)n(C)c3cc(-c4ccnc(C(F)(F)F)c4)nn3c2c1` [Example 79, 4-Methyl-5-oxo-2-(2-trifluoromethyl-pyridin-4-yl)-4,5-dihydro-pyrazolo[1,5-a]quinazoline-8-carboxylic Acid Dimethylamide] was tested. Which “ratio [IC50 hmGluR3]/[IC50 hmGluR2]” value did it give?
Its value is “higher than 3”.

With `CCN(CC)C(=O)c1ccc2c(=O)n(C)c3cc(-c4ccnc(C(F)(F)F)c4)nn3c2c1` [Example 80, 4-Methyl-5-oxo-2-(2-trifluoromethyl-pyridin-4-yl)-4,5-dihydro-pyrazolo[1,5-a]quinazoline-8-carboxylic Acid Diethylamide] as the compound, how does the “ratio [IC50 hmGluR3]/[IC50 hmGluR2]” value read?
The value was “higher than 3”.

`Cn1c(=O)c2ccc(C(=O)N3CCOCC3)cc2n2nc(-c3ccnc(C(F)(F)F)c3)cc12` [Example 81, 4-Methyl-8-(morpholine-4-carbonyl)-2-(2-trifluoromethyl-pyridin-4-yl)-4H-pyrazolo[1,5-a]quinazolin-5-one] was tested. Which “ratio [IC50 hmGluR3]/[IC50 hmGluR2]” value did it give?
Its value is “higher than 3”.

With `Cn1c(=O)c2ccc(C(=O)N3CCCC3)cc2n2nc(-c3ccnc(C(F)(F)F)c3)cc12` [Example 82, 4-Methyl-8-(pyrrolidine-1-carbonyl)-2-(2-trifluoromethyl-pyridin-4-yl)-4H-pyrazolo[1,5-a]quinazolin-5-one] as the compound, how does the “ratio [IC50 hmGluR3]/[IC50 hmGluR2]” value read?
The value was “higher than 3”.

With `Cn1c(=O)c2c(F)cccc2n2nc(-c3ccnc(C(F)(F)F)c3)cc12` [Example 85, 6-Fluoro-4-methyl-2-(2-trifluoromethyl-pyridin-4-yl)-4H-pyrazolo[1,5-a]quinazolin-5-one] as the compound, how does the “ratio [IC50 hmGluR3]/[IC50 hmGluR2]” value read?
Its value is “higher than 3”.

For `COc1cc2c(=O)n(C)c3cc(-c4ccnc(C(F)(F)F)c4)nn3c2cc1OC` [Example 87, 7,8-Dimethoxy-4-methyl-2-(2-trifluoromethyl-pyridin-4-yl)-4H-pyrazolo[1,5-a]quinazolin-5-one], which “ratio [IC50 hmGluR3]/[IC50 hmGluR2]” value is on record?
The value was “higher than 3”.

With `Cn1c(=O)c2cc(F)c(F)cc2n2nc(-c3ccnc(C(F)(F)F)c3)cc12` [Example 88, 7,8-Difluoro-4-methyl-2-(2-trifluoromethyl-pyridin-4-yl)-4H-pyrazolo[1,5-a]quinazolin-5-one] as the compound, how does the “ratio [IC50 hmGluR3]/[IC50 hmGluR2]” value read?
The value was “higher than 3”.

`COc1cc2c(=O)n(C)c3cc(-c4ccnc(C(F)(F)F)c4)nn3c2cc1F` [Example 89, 8-Fluoro-7-methoxy-4-methyl-2-(2-trifluoromethyl-pyridin-4-yl)-4H-pyrazolo[1,5-a]quinazolin-5-one] was tested. Which “ratio [IC50 hmGluR3]/[IC50 hmGluR2]” value did it give?
Its value is “higher than 3”.

`COc1cc2c(=O)n(C)c3cc(-c4ccnc(C(F)(F)F)c4)nn3c2cc1N1CCC(O)CC1` [Example 90, 8-(4-Hydroxy-piperidin-1-yl)-7-methoxy-4-methyl-2-(2-trifluoromethyl-pyridin-4-yl)-4H-pyrazolo[1,5-a]quinazolin-5-one] was tested. Which “ratio [IC50 hmGluR3]/[IC50 hmGluR2]” value did it give?
Its value is “higher than 3”.

`CN(C)c1cc2c(cc1F)c(=O)n(C)c1cc(-c3ccnc(C(F)(F)F)c3)nn21` [Example 91, 8-Dimethylamino-7-fluoro-4-methyl-2-(2-trifluoromethyl-pyridin-4-yl)-4H-pyrazolo[1,5-a]quinazolin-5-one] was tested. Which “ratio [IC50 hmGluR3]/[IC50 hmGluR2]” value did it give?
The value was “higher than 3”.

With `CNc1cc2c(=O)n(C)c3cc(-c4ccnc(C(F)(F)F)c4)nn3c2cc1OC` [Example 94, 8-Methoxy-4-methyl-7-methylamino-2-(2-trifluoromethyl-pyridin-4-yl)-4H-pyrazolo[1,5-a]quinazolin-5-one] as the compound, how does the “ratio [IC50 hmGluR3]/[IC50 hmGluR2]” value read?
Its value is “higher than 3”.

Which “ratio [IC50 hmGluR3]/[IC50 hmGluR2]” value does the source give for `Cn1c(=O)c2cc(Cl)ccc2n2nc(-c3ccnc(Cl)c3)cc12` [Example 95, 7-Chloro-2-(2-chloro-pyridin-4-yl)-4-methyl-4H-pyrazolo[1,5-a]quinazolin-5-one] here?
The value was “higher than 3”.

How did the “ratio [IC50 hmGluR3]/[IC50 hmGluR2]” value turn out when `Cl.Cn1c(=O)c2cc(Cl)ccc2n2nc(-c3ccnc(C4CC4)c3)cc12` [Example 96] was run?
The value was “higher than 3”.
